Data published in US20150166617A1, “COMPOSITIONS AND METHODS OF TREATING ALZHEIMER'S DISEASE” (UNIVERSITY OF MIAMI, priority 2012, published 2015).
“Also recorded” adds a separate entry of the source. Not every detail of the peptide structures is certain; ends, links or a residue may be inferred. Square brackets hold non-standard residues; d marks the D form. Peptide text beside a SMILES is read from it. * marks the point of attachment. Phe(F5) = N[C@@H](Cc1c(F)c(F)c(F)c(F)c1F)C(=O)O; Phe(4-Cl) = N[C@@H](Cc1ccc(Cl)cc1)C(=O)O; hArg = N=C(N)NCCCC[C@H](N)C(=O)O; 12Ado = NCCCCCCCCCCCC(=O)O; Nle = CCCC[C@H](N)C(=O)O; Orn = NCCC[C@H](N)C(=O)O; Abu = CC[C@H](N)C(=O)O; PhAc = O=C(Cc1ccccc1)*

Key:
[1] = test system: 5XFAD transgenic mice; experiment: Morris water maze (MWM) spatial learning in 5XFAD transgenic mice; type: in vivo
[2] = test system: 5XFAD transgenic mice; experiment: Survival of 5XFAD transgenic mice over 6 months (Kaplan-Meier); type: in vivo; conditions: 5XFAD mice, 2, 5, 10 μg s.c. daily for 6 months; FIG. 4
[3] = test system: amyloid-β1-42; experiment: Brain amyloid-β1-42 level by mouse-specific ELISA; type: in vivo; conditions: 5XFAD mice, 10 μg s.c. daily for 6 months; necropsied brain; p<0.05 vs. control; FIG. 5
[4] = test system: total τ-protein; experiment: Brain total τ-protein level by mouse-specific ELISA; type: in vivo; conditions: 5XFAD mice, 10 μg s.c. daily for 6 months; necropsied brain; p<0.01 vs. control; FIG. 5
[5] = test system: HCN-2 cells; experiment: Viability of differentiated HCN-2 cells treated with amyloid-β1-42 (MTT assay), Example 4; type: cell-based; conditions: 10 μM amyloid-β1-42; MIA-690 10 nM, 100 nM, 1 μM; three days; p<0.05 at 10 μM MIA-690 (so in the source)
[6] = test system: HCN-2 cells; experiment: Free radical (ROS) formation in HCN-2 cells, APF assay; type: cell-based; conditions: 10 μM amyloid-β1-42, p<0.05 at 1 μM MIA-690
[7] = test system: SOD1; experiment: SOD1 in media of HCN-2 cells, ELISA; type: cell-based; conditions: 10 μM amyloid-β1-42, 10 nM, 100 nM, 1 μM
[8] = test system: glutathione-peroxidase (GPx); experiment: GPx1 in media of HCN-2 cells, ELISA; type: cell-based; conditions: 10 μM amyloid-β1-42, highest applied concentration (1 μM), p<0.05
[9] = test system: brain derived neurotrophic factor (BDNF); experiment: BDNF in media of HCN-2 cells, ELISA; type: cell-based, human; conditions: 10 μM amyloid-β1-42, highest applied concentration (1 μM), p<0.01
[10] = test system: IGF-I; experiment: IGF-I release of HCN-2 cells, ELISA; type: cell-based, human; conditions: 10 μM amyloid-β1-42, p<0.05 at 100 nM, p<0.01 at 1 μM
[11] = test system: IGF-II; experiment: IGF-II secretion of HCN-2 cells, ELISA; type: cell-based, human; conditions: 10 μM amyloid-β1-42, data not presented
[12] = test system: Alzheimer's disease related genes; experiment: Mouse Alzheimer's Disease real-time quantitative PCR array on brain samples of 5XFAD mice; type: in vivo; conditions: brain of 5XFAD mice, 10 μg daily for six months
Procedure: Total RNA was isolated and DNAse treated from representative hemispheria using NucleoSpin kit according to the manufacturer's instructions (Macherey-Nagel Inc., Bethlehem, Pa.). Five samples each from the control and the 10 μg MIA-690 group were analyzed. The yield and the quality of RNA samples were determined spectrophotometrically using 260 nm, and 260/280 and 260/230 nm ratio. The synthesis of cDNA was performed as follows. Briefly, 1 μg of RNA from each sample was reverse-transcribed into cDNA by RT First Strand kit (Qiagen). Reverse transcription was done in a Veriti 96-well thermal cycler (Applied Biosystems). The Mouse Alzheimer's Disease real-time quantitative PCR array (PAMM-057Z Qiagen) used in the study contains 84 unique genes related to Alzheimer's disease. All PCR arrays were performed using iQ5 Multicolor Real-Time Detections System (Bio-Rad). […] Data analysis of gene expression was performed using Excel based PCR Array Data Analysis Software provided by the manufacturer (Qiagen): fold-changes in gene expression were calculated using the ΔΔCt method and five stably expressed housekeeping genes (Act b, B2m, GAPDH, Gus b, Hsp 90 ab1) were used for normalization of the results.

CCCC[C@H](NC(=O)[C@@H](NC(=O)[C@H](CC(=O)O)NC(=O)[C@H](CCC(N)=O)NC(=O)[C@H](CC(C)C)NC(=O)[C@H](CC(C)C)NC(=O)[C@H](CCCN)NC(=O)[C@H](Cc1c[nH]cn1)NC(=O)[C@H](C)NC(=O)[C@H](CO)NC(=O)[C@H](CC(C)C)NC(=O)[C@H](CCC(N)=O)NC(=O)[C@H](CC)NC(=O)[C@H](CC(C)C)NC(=O)[C@@H](NC(=O)[C@H](CCCN)NC(=O)[C@H](Cc1c[nH]cn1)NC(=O)[C@H](Cc1c(F)c(F)c(F)c(F)c1F)NC(=O)[C@H](CCCCNC(=N)N)NC(=O)[C@H](C)NC(=O)[C@@H](NC(=O)[C@H](Cc1ccc(Cl)cc1)NC(=O)[C@@H](NC(=O)[C@H](C)NC(=O)[C@H](CC(=O)O)NC(=O)[C@@H](CCCNC(=N)N)NC(=O)[C@H](Cc1ccc(O)cc1)NC(=O)CCCCCCCCCCCNC(=O)Cc1ccccc1)[C@@H](C)CC)[C@@H](C)O)C(C)C)[C@@H](C)CC)C(=O)N[C@H](CCCNC(=N)N)C(=O)N[C@@H](CCCCNC(=N)N)C(N)=O [MIA-690, Phac-Ada-Tyr^1-D-Arg^2-Asp^3-Ala^4-Ile^5-Cpa^6-Thr^7-Ala^8-Har^9-Fpa5^10-His^11-Orn^12-Val^13-Leu^14-Abu^15-Gln^16-Leu^17-Ser^18-Ala^19-His^20-Orn^21-Leu^22-Leu^23-Gln^24-Asp^25-Ile^26-Nle^27-D-Arg^28-Har^29-NH2] ({PhAc-12Ado}-Y[dR]DAI[Phe(4-Cl)]TA[hArg][Phe(F5)]H[Orn]VL[Abu]QLSAH[Orn]LLQDI[Nle][dR][hArg]-NH2)
progressive decrease in the amplitude of the latency curve (MWM) ([1]; 5XFAD mice, 10 μg s.c. daily for 6 months, FIG. 1A, p<0.05 vs. control): almost completely abolished the progressive decrease in the amplitude of the latency curve
performance (latency) during the acquisition period after six months (MWM) ([1]; 5XFAD mice, 10 μg s.c. daily, p<0.05 vs. control): performed significantly better
changes in other behavioral parameters (MWM, FIGS. 1 B-D and FIG. 2) ([1]; 5XFAD mice, 2, 5, 10 μg s.c. daily for 6 months): showed a tendency to attenuate the changes in other behavioral parameters
survival [2]: appeared to prolong survival
cerebral deposition of amyloid-β1-42 [3]: dramatically decreased the cerebral deposition of amyloid-β1-42; also recorded: especially dramatic decrease
total accumulation of τ-protein [4]: slightly attenuated the total accumulation of τ-protein
viability of neurons (HCN-2) under amyloid-β1-42 co-treatment [5]: remarkably attenuated the toxic impact of co-treatment with amyloid-β1-42 on the viability of neurons; also recorded: dose-dependently increased the viability of HCN-2 cells treated by amyloid-β1-42
generation of ROS evoked by amyloid-β1-42 [6]: practically abolished the generation of ROS evoked by amyloid-β1-42 co-treatment; also recorded: significantly decreased free radical formation
SOD1 expression [7]: did not have a significant and linear impact on SOD1 expression; also recorded: did not have a significant effect on SOD1 secretion
glutathione-peroxidase (GPx) expression [8]: significantly increased; also recorded: dose-dependently augmented GPx1 levels
brain derived neurotrophic factor (BDNF) expression [9]: significantly increased
release of IGF-I [10]: suppressed the release of IGF-I; also recorded: decreased the secretion of IGF-I
secretion of IGF-II [11]: negligible; also recorded: did not influence IGF-II secretion
Fold change vs. controls: acetylcholinesterase [12]: −1.61 fold
Fold change vs. controls: amyloid-β (A4) precursor protein [12]: −1.79 fold
Fold change vs. controls: amyloid-β (A4) precursor-like protein 2 [12]: −1.59 fold
Fold change vs. controls: anterior pharynx defective 1a homolog [12]: −1.54 fold
Fold change vs. controls: caspase 4, apoptosis-related cysteine peptidase [12]: −3.23 fold
Fold change vs. controls: cathepsin C [12]: −6.67 fold
Fold change vs. controls: cathepsin G [12]: −2.22 fold
Fold change vs. controls: clusterin [12]: −1.72 fold
Fold change vs. controls: cyclin-dependent kinase 1 [12]: −2.00 fold
Fold change vs. controls: growth associated protein 43 [12]: −1.61 fold
Fold change vs. controls: insulin-like growth factor 2 [12]: −3.22 fold
Fold change vs. controls: low density lipoprotein receptor-related protein 6 [12]: −4.76 fold
Fold change vs. controls: microtubule-associated protein 2 [12]: −1.54 fold
Fold change vs. controls: microtubule-associated protein τ [12]: −1.33 fold
Fold change vs. controls: neural precursor cell expressed and developmentally down regulated gene (NEDD)8 activating enzyme E1 subunit 1 [12]: −4.35 fold
Fold change vs. controls: nicastrin [12]: −1.69 fold
Fold change vs. controls: presenilin 1 [12]: −2.17 fold
Fold change vs. controls: presenilin 2 [12]: −1.27 fold
Fold change vs. controls: ubiquinol cytochrome c reductase core protein 2 [12]: 1.49 fold
Fold change vs. controls: β-site APP-cleaving enzyme 2 (BACE2) [12]: −2.27 fold
number of Alzheimer's disease related genes with statistically significant changes in expression ([12]; array of 84 genes): 22 genes
